Results from patent US9101138B2, “Methods and compositions utilizing lactams derived from camphor, verbenone or cat thyme oil for repelling blood-sucking and biting insects, ticks and mites” (The United States of America, as represented by the …, priority 2013, dated 2015).
Some entries share one result that the patent states for a list of compounds.

System: Sand Fly (Phlebotomus papatasi)
Test: Sand fly blood-feeding assay for testing repellents and feeding deterrents
Format: in vivo
Conditions: concentration as low as 0.00001% (or 0.001 μg/cm^2)
Description: Sand Fly (Phlebotomus papatasi) blood-feeding assay for testing repellents and feeding deterrents: A pig intestine-based membrane feeing system (Watnaporn, D., et al., Proceedings of VIIIth Sir Dorabjee Tata International Symposium: Arthropod born viral infections-Current status and research, Pages 417-424, 2008) has been used for blood-feeding of female sand flies in colony maintenance. The same technique has been used for testing repellency and antifeeding effects of several new compounds. A circular area of the fabric mesh on top of the test container that matches the size of the glass feeder was treated with the test compound by applying the test solution using a Q-tip. After a group of 30 females and 15 males was placed into the test container, a glass feeder filled with cow blood was placed on top of the treated area in the center of the fabric mesh that was secured on top of the container. Sand flies were allowed to feed for 2 h before the number of blood-fed females was in each feeding container counted.
Female sand flies in the untreated control achieved a 32% to 61% blood feeding rate during the test period (2 h) when a group of 30 females and 15 males was placed in a feeding pot and fed through a fine mesh screen using an artificial membrane feeding system (Table 1 [?]).

Structure (SMILES)	repellency [%]
CCCN1CC2CCC(C)(C1=O)C2(C)C (centres unmarked) [Compound 1a, N-propyl camphor lactam]	> 90
CC12CCC(CNC1=O)C2(C)C (centres unmarked) [Compound 1, Camphor lactam]	> 90
